Whole data set: some 33,000 sequences, median “E-score (-0.5 to 0.5)” near -0.0014, cut for the highest 2% near 0.25. Some of the results follow.
Each sequence was assayed against T1, Cad1 (UniProt P24813) (assay: PBM E-score (8-mer binding enrichment) (E-score (-0.5 to 0.5)); higher = stronger / more preferred TF binding). Settings: protein concentration: 100 nM; construct: GST-full length.
T1 sequence: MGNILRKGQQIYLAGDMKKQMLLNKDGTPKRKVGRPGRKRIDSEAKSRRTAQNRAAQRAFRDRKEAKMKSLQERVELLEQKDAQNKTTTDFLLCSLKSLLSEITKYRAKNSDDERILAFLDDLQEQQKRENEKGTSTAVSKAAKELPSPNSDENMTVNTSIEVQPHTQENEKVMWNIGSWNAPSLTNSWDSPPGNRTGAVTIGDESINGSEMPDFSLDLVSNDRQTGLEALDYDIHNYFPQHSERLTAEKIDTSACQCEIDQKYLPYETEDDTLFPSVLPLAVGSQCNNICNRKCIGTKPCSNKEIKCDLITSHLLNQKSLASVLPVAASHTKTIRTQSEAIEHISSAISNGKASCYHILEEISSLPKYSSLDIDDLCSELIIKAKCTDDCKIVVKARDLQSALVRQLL
How it was run: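 GST-tagged yeast TFs (full-length or DNA-binding domain) were made by PURExpress in vitro transcription/translation and applied at about 100-200 nM to universal all-10-mer Agilent arrays. The arrays were made double-stranded by primer extension, on fresh or once-stripped slides. Bound protein was detected with fluorescent anti-GST, and scans were normalised with masliner. Each ungapped eight-base word, pooled with its reverse complement, received an E-score (modified Wilcoxon-Mann-Whitney statistic) from the Universal PBM Analysis Suite.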

Sequence | PBM E-score
CTTTTTAA | -0.00761
CTCTGCAG | -0.121
AAGATCTT | 0.136
CGTTTCCA | 0.0206
CTCGTTTA | 0.00416
CCCTTGAC | -0.197
CAACTATG | 0.034
CAGGACTA | -0.00223
CGATTTCA | 0.102
GTAATCGA | 0.242
AGTGGCTA | -0.0597
ACGAACAC | 0.198
TGGAAACA | 0.0315
GAGATTCA | 0.0766
CCTAAAGA | -0.165
ATGTAAGC | 0.305
AGGCCTTA | -0.026
TATTATCA | 0.138
CAATGACG | -0.237
GGATTTTA | 0.00558
CTACGTAG | 0.106
AAGCGTCT | -0.173
CATGCTTA | 0.106
TCTAATCA | 0.181
AAATCCTG | 0.135

Sequence | PBM E-score
CACCGTAC | -0.0219
GAGATCGC | 0.0727
CATCCTGA | 0.0565
CCATGGTA | 0.0858
ACGGTGAG | -0.0981
TACCGCAA | 0.209
CCTCTGAG | -0.182
CCCCCAAA | -0.251
ATGCCCCG | -0.0614
AGAAACGA | -0.0254
ACATCCCC | -0.105
ACACGTTG | -0.0714
AAGCGGAG | -0.153
CCCATCTC | -0.0949
CTCCGTAA | -0.0966
CGCGACAG | 0.0208
CGCACAGA | 0.0159
GGATAACC | -0.0327
CTCGAGAG | 0.0431
AAGTTATC | 0.153
CGTTTCCC | -0.117
CCTACTCA | 0.058
AATGTACC | -0.12
TGAACTAA | -0.063
AGCCCCTA | -0.105

4 successive entries out of the list so far:
Sequence | PBM E-score
CACCGTAC | -0.0219
GAGATCGC | 0.0727
CATCCTGA | 0.0565
CCATGGTA | 0.0858

(list continues)

Sequence | PBM E-score
GAGGCCCA | -0.3
GTAGGAGA | -0.124
AAAGACAG | 0.161
GGCATAAA | 0.00764
CCCAGTAG | -0.0815
ACAGTGAA | 0.0694
GACCTGAC | -0.044
AGAGGGCG | -0.137
GCGGCAGA | -0.0716
CGAAAGGC | -0.067
GACAGGCC | 0.237
CCCTACCA | -0.103
CTACTGTA | -0.0464
TGGTCTAA | -0.208
AAAATTGA | 0.104
AGTTTGCC | -0.0402
ATAGTTAA | 0.114
CCGAGCCC | -0.263
CGCCGGTC | 0.0454
CGAAGCGC | -0.00786
TACTCTCA | 0.0305
GATTGTGA | 0.138
GACAGCTC | -0.16
GAAAGGAC | -0.0895
GTTGAGCA | 0.139

Sequence | PBM E-score
CGAGCTAG | -0.0498
ATGACAAA | 0.414
AATTGGCT | 0.153
CGTTTAAC | 0.138
ACTAAACT | 0.028
ACCCGTTC | -0.0216
CCTGAGAG | -0.184
AAGCCACC | -0.258
CCCAACGG | -0.129
ATCGCGAC | 0.195
AGTTCGCA | 0.0914
AACCGCAT | 0
CGAAGGCG | -0.0563
GTGTCATA | 0.15
ATCTAACC | -0.0333
AGAGGACA | -0.107
GTCACAAA | -0.0316
AATTCTCT | -0.169
CCCCGGAG | -0.2
AAGGCGCT | -0.0149
CGCTGCAA | 0.113
CAGTTTGA | 0.0132
ACACCTGT | -0.0438
GCCGCTCC | -0.335
CGCTGACG | 0.0393

Sequence | PBM E-score
TATGTGCA | -0.0413
TATAAACA | 0.171
GCATCAGA | 0.14
GTACCCTA | -0.134
AACGTCTT | -0.0534
GTCTGCCA | 0.00273
ACGAAACA | 0.192
AAATTAAA | 0.257
ACTGGCCA | 0.0793
GTCTCCGA | 0.0599
AATCTGCC | -0.0433
CAGAACTA | 0.0111
CCCAACCC | -0.0388
ACGCCACT | -0.0112
TAAGCGGA | 0.138
CGTTAGCC | 0.0683
AGCTACCG | -0.0882
AGTGTACG | -0.022
ATCCAATA | 0.129
AAATAGGA | 0.18
AGAGGGTA | -0.198
AACTGCTG | -0.0149
CGCAGCCG | -0.0614
CCGTTCTC | -0.0492
CGCTCAAA | 0.0635

Looked up one by one from the entries so far, 4 records:
Sequence | PBM E-score
CACCGTAC | -0.0219
GACAGCTC | -0.16
TGGAAACA | 0.0315
CCCAACGG | -0.129

More entries:

Sequence | PBM E-score
GATAATTA | 0.297
CACTGACG | -0.0752
CAAAAGCG | 0.0683
ACAAAACT | 0.21
GGAATTCA | 0.0713
CTTGGCAA | -0.00352
CAATGCTG | -0.0307
GGAGTACA | -0.15
CACGGGGG | -0.395
TGACCTCA | -0.169
CGACAAAC | 0.00348
AATTCAGA | 0.137
CAGATCTG | 0.113
AATTAAGT | 0.181
GGCACGAA | -0.0351
CGTCGTAC | 0.0283
ACTGGAGC | -0.309
CCAGCAGA | -0.0706
CTGCAAGC | -0.111
CTGATCAA | -0.00216
CATCGGAG | -0.181
GTGGGTGA | 0.0388
GAAACCGA | -0.0183
ACTGATGA | 0.103
CCTCAATC | 0.0973

Sequence | PBM E-score
ACATAATA | 0.178
CCAAAAGG | -0.175
GTTGATCA | 0.22
GAATAGAC | -0.0164
ACAGTGTG | 0.00567
AGCGTGTA | 0.0881
AATCTAGG | 0.00096
GTCGTATA | 0.0209
AAGGAGCT | -0.283
CTACATGC | -0.056
AATGCCAC | -0.204
ACTTGGAA | -0.116
ATCTGGCA | 0.0573
CCAGACGA | -0.138
ACGGCAAG | 0.0783
AAACTTCG | 0.142
AACAGACG | -0.0831
GCAAAGAC | 0.0345
ACAATAGT | 0.109
AAGAATAA | 0.146
ACATCGGC | 0.0889
GCATTCAC | 0.0305
ATCTCATG | 0.186
CCTTGTCG | -0.0826
GGGACATA | -0.0175

Sequence | PBM E-score
AGGGCTCC | -0.295
AGTTGGTA | 0.222
GCGACCCC | -0.241
ACTTGGCG | -0.202
CGAAAGCG | -0.0744
AACTCAAG | 0.0044
ACCAGAGC | 0.0352
AATGGAAC | 0.207
AAGAATAG | 0.0296
CAGCTCAG | -0.0398
TGATCGAA | -0.0236
GTCGGCGA | -0.07
TATGCCGA | 0.0059
AATGGTGT | 0.0603
ATATTTCC | 0.00155
CCTGTCCC | -0.207
TAACGATA | 0.261
CGTGTCCA | -0.132
AGAACCTG | 0.0251
ATGTCGTA | -0.0186
GATTAAAC | 0.0432
ACCAAGTG | -0.225
AGGGCGGA | -0.192
AGGGACTC | -0.314
GGTACTCA | -0.0607

Sequence | PBM E-score
ATAGCGAT | 0.0789
GGTCGAAA | -0.176
GACCCTAC | -0.177
AGGGCCTC | -0.242
CGCGGTAA | 0.2
AAGGCTGT | -0.208
CCCTTCAC | -0.172
GGTTCGTA | 0.0714
CTGCCGTA | -0.155
GCACCATA | -0.00684
CTTTTGTC | 0.0635
TATCACAA | 0.135
TCTTTACA | 0.0741
CGCTCCAC | -0.092
CATTTTAG | 0.15
ACAGCCTC | -0.103
TAGAGCAA | -0.126
ATTCGAAG | 0.106
AGCTAAAA | -0.0268
